Assay results taken from publication doi:10.1101/2020.01.08.899328.
Results are given in words; binding and its absence hold for the method and conditions named. In cells and extracts the contact can be indirect. Some entries that bind do so weakly or less than the wild type. One block for each molecule: values may come before it.

Chains of the proteins cited; added tags and fusions are not shown.
UniProt Q3TKT4: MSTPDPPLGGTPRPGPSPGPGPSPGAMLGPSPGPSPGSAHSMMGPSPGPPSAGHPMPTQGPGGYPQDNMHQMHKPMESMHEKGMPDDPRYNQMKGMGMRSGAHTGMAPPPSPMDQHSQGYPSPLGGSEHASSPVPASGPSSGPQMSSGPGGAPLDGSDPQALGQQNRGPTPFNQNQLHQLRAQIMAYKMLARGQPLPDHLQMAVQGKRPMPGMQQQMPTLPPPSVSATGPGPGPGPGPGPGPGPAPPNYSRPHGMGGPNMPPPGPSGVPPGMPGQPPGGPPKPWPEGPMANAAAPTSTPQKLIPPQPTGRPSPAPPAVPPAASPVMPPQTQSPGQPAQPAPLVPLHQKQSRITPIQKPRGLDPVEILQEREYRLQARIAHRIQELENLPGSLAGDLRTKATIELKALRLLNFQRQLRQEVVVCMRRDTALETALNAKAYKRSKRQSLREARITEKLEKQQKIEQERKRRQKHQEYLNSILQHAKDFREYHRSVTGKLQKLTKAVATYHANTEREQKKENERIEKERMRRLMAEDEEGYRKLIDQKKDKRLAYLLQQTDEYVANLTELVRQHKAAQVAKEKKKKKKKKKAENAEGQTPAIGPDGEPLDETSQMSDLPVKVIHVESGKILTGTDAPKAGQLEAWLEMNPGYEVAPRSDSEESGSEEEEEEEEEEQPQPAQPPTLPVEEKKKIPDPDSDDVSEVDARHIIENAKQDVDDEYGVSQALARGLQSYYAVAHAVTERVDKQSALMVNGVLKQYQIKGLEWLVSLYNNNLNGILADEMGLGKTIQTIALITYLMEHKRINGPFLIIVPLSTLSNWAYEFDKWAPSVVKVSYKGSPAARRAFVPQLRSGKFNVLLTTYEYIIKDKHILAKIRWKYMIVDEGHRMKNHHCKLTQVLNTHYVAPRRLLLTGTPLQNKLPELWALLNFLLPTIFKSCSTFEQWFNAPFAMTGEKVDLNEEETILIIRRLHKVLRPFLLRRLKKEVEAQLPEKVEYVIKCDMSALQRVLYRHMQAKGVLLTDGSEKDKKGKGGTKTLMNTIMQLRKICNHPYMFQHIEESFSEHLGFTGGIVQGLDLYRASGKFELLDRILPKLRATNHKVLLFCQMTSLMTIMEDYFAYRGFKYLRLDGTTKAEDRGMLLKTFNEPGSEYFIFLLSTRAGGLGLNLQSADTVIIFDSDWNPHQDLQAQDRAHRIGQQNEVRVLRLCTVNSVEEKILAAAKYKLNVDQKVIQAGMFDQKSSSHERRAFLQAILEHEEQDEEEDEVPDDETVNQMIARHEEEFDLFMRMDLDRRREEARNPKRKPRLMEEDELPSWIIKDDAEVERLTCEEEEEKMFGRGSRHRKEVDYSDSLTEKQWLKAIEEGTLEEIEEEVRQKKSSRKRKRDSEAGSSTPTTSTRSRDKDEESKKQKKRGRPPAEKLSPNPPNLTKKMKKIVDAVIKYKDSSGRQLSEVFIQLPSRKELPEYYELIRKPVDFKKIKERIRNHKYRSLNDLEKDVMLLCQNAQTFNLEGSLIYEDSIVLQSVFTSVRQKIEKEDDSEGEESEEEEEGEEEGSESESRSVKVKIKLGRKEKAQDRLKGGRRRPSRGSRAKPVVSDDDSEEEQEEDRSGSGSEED
UniProt Q9DBR0: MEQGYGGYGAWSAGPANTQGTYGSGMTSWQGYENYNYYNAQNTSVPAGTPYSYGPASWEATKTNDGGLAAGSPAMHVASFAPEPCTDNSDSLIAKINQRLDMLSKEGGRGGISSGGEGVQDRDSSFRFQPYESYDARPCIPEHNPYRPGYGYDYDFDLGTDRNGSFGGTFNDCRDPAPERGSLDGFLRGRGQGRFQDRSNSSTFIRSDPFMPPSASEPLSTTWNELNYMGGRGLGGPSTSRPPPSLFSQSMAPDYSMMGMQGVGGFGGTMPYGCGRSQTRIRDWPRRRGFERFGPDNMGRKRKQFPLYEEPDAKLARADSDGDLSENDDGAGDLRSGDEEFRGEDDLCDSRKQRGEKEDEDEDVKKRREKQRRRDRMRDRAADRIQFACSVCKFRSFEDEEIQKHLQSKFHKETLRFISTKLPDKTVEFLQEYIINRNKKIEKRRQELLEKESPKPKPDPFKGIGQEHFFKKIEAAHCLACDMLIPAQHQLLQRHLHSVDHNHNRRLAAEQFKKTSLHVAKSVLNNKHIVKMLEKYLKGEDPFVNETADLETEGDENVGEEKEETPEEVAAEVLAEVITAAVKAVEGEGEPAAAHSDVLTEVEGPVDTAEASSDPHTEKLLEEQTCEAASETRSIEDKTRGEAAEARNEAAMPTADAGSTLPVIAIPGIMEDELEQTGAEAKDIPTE

Molecular target: T1, Ambra1 (Activating Molecule in Beclin1-Regulated Autophagy) (mouse (endogenous in SCC cells)) (UniProt A2AH22)
T1 sequence: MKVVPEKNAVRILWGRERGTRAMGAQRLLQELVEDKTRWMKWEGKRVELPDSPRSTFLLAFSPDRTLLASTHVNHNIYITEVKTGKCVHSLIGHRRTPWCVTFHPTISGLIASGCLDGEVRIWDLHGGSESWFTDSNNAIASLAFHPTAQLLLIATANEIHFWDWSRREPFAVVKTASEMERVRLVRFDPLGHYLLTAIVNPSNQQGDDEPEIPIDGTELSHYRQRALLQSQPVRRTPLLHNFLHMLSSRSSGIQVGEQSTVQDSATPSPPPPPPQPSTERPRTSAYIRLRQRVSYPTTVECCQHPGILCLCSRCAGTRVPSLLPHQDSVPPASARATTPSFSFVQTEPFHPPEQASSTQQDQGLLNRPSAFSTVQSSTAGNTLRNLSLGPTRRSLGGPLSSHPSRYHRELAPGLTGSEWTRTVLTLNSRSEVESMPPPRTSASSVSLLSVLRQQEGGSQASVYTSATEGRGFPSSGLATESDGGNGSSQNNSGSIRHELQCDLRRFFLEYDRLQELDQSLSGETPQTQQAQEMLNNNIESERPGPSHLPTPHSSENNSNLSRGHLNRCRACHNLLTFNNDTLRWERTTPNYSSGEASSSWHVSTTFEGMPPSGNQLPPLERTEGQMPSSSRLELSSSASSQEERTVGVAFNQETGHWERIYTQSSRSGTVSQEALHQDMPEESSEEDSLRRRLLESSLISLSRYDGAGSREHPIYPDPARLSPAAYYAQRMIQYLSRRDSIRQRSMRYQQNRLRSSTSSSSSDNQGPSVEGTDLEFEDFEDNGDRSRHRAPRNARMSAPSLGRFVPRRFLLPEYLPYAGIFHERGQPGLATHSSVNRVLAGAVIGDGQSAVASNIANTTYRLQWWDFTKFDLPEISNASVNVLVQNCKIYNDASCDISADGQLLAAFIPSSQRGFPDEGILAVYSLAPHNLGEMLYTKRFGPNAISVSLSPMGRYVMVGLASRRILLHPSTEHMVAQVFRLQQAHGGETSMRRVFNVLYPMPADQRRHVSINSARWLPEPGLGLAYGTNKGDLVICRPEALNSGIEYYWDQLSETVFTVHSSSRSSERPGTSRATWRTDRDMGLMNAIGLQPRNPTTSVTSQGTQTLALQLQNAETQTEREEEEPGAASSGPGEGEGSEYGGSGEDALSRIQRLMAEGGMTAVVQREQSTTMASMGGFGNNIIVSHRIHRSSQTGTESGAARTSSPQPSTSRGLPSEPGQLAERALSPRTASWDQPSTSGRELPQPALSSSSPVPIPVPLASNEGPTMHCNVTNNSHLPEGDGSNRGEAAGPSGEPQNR
Test: co-IP

binding: binds
Molecule: SMARCA4 (Brg1) (from UniProt Q3TKT4 1-1613)

binding: binds
Molecule: Akap8 (A kinase anchor protein 8) (from UniProt Q9DBR0 1-687)

binding: binds
B1: Nup153 (protein, UniProt E9Q3G8 1-1462)
chain: MASEAGGIGGGGGGGKIRTRRCHQGPVKPYQQGRPQHQGILSRVTESVKNIVPGWLQRYFNKSENACSCSPDADEVPPWPENREDEHAIYADENTNTDDGRITPDPAGSNTEEPSTTSTASNYPDVLTRPSLHRSHLNFSVLESPALHCQPSTSSAFPIGSSGFSLVKEIKDSTSQHDDDNISTTSGFSSRASEKDIAVSKNTSLPPLWSPEAERSHSLSQHTAISSKKPAFNLSAFGTLSTSLGNSSILKTSQLGDSPFYPGKTTYGGAAAAVRQNKVRSTPYQAPVRRQMKAKQLNAQSYGVTSSTARRILQSLEKMSSPLADAKRIPSAVSSPLNSPLDRSGIDNTVFQAKKEKVDSQYPPVQRLMTPKPVSIATNRTVYFKPSLTPSGDLRKTNQRIDKKNSTVDEKSISRQNREQESGFSYPNFSIPAANGLSSGVGGGGGKMRRERTHFVAPKPPENEEVEAPLLPQISLPISSSSLPTFSFSSPVTSASPSPVSSSQPLPNKVQMTSLGSTGSPVFTFSSPIVKSTQAAVLPPASIGFTFSVPLAKTEFSGSNSSSETVLSSSAQDITAVNSSSYKKRSAPCEDPFTPAKILREGSVLDILKTPGFASPKVDSPALQPTTTSSIVYTRPAISTFSSSGIEYGESLKAGSSWQCDTCLLQNKVTDNKCIACQAAKLPLKETAKQTGTGTPSKSDKPASTSGTGFGDKFKPAIGTWDCDTCLVQNKPEAVKCVACETPKPGTGVKRALTLTVASESPVTASSSTTVTTGTLGFGDKFKRPVGSWECPVCCVCNKAEDNRCVSCTSEKPGLVSASSSSPAPVSLSSGGCLGLDKFKKPEGSWDCEVCLVQNKADSAKCIACESAKPGTKSEFKGFGTSSSLNPAPSAFKFGIPSSSSGLSQTLTSTGNFKFGDQGGFKLGTSSDSGSTNTMNTNFKFSKPTGDFKFGVLSDSKPEEVKNDNKNDNFQFGSSSGLTNPASSAPFQFGVSTLGQQEKKEELPKSSPAGFSFGAGVNNPPNAAIDTTATSENKSGFNFGTLDTKSVSVTPFTYKTTEAKKEDAPATKGGFTFGKVGSSSLPSSSMFVLGRTEEKQQEPVTSTSLVFGKKADSEEPKCQPVFSFGNSEQTKDESSKPTFSFSVAKPSGKESEQLAKATFAFGNQTNTTTDQGAAKPVFSFLNSSSSSSSAPATSSSGGIFGSSTSSSNPPVAAFVFGQASNPVSSSAFGNAAESSTSQSLLFPQESEPATTSSTAPAASPFVFGTGASSNSVSSGFTFGATTTSSSSGSSFVFGTGHSAPSASPAFGANQTPTFGQSQGASQPNPPSFGSISSSTALFSAGSQPVPPPIFGTVSSSSQPPVFGQQPSQSAFGSGTANASSVFQFGSSTTNFNFTNNNPSGVFTFGASPSTPAASAQPSGSGVFSFSQSPASFTVGSNGKNMFSSSGTSVSGRKIKTAVRRKK

binding: binds
B2: Atf2 (protein, UniProt P16951 1-487)
chain: MSDDKPFLCTAPGCGQRFTNEDHLAVHKHKHEMTLKFGPARNDSVIVADQTPTPTRFLKNCEEVGLFNELASPFENEFKKASEDDIKKMPLDLSPLATPIIRSKIEEPSVVETTHQDSPLPHPESTTSDEKEVPLAQTAQPTSAIVRPASLQVPNVLLTSSDSSVIIQQAVPSPTSSTVITQAPSSNRPIVPVPGPFPLLLHLPNGQTMPVAIPASITSSNVHVPAAVPLVRPVTMVPSVPGIPGPSSPQPVQSEAKMRLKAALTQQHPPVTNGDTVKGHGSGLVRTQSEESRPQSLQQPATSTTETPASPAHTTPQTQNTSGRRRRAANEDPDEKRRKFLERNRAAASRCRQKRKVWVQSLEKKAEDLSSLNGQLQSEVTLLRNEVAQLKQLLLAHKDCPVTAMQKKSGYHTADKDDSSEDLSVPSSPHTEAIQHSSVSTSNGVSSTSKAEAVATSVLTQMADQSTEPALSQIVMAPPSQAQPSGS
